No constants are given. Whether binding was seen depends on the method and setting. For part of these data: A result given as binding can be weak or reduced; the word gives no strength. For part of these data: Where a sequence is shown, tags or fusion partners need not be part of it. For part of these data: Binding seen in cells or lysates may run through a third protein. Blank lines part the entries; values can stand above or below the molecule they belong to.
What was measured:
[1] = target: ME2fl (full-length cytoplasmic malic enzyme 2), transfected (human) (UniProt P23368); test: co-IP; cytoplasmic fraction of transfected HEK293T cells, anti-Flag immunoprecipitation, western blot
[2] = target: ME2fl (full-length cytoplasmic malic enzyme 2), transfected (human) (UniProt P23368); test: co-IP; HEK293T cells transfected for 24 h, total lysates in IP lysis buffer (50 mM Tris-HCl pH 7.4, 150 mM NaCl, 1% TritonX-100, 5 mM EDTA, 1% sodium deoxycholate), anti-Flag immunoprecipitation, western blot
Flag-tagged PKM2 [3] = target: Flag-tagged PKM2 (UniProt P14618); test: co-IP; sequential co-precipitation of exogenous proteins (Supplementary Fig. 12c-g)
Flag-tagged GAPDH [4] = target: Flag-tagged GAPDH (UniProt P04406); test: as above
Flag-tagged PFKL [5] = target: T1, Flag-tagged PFKL (UniProt P17858); test: as above
T1 sequence: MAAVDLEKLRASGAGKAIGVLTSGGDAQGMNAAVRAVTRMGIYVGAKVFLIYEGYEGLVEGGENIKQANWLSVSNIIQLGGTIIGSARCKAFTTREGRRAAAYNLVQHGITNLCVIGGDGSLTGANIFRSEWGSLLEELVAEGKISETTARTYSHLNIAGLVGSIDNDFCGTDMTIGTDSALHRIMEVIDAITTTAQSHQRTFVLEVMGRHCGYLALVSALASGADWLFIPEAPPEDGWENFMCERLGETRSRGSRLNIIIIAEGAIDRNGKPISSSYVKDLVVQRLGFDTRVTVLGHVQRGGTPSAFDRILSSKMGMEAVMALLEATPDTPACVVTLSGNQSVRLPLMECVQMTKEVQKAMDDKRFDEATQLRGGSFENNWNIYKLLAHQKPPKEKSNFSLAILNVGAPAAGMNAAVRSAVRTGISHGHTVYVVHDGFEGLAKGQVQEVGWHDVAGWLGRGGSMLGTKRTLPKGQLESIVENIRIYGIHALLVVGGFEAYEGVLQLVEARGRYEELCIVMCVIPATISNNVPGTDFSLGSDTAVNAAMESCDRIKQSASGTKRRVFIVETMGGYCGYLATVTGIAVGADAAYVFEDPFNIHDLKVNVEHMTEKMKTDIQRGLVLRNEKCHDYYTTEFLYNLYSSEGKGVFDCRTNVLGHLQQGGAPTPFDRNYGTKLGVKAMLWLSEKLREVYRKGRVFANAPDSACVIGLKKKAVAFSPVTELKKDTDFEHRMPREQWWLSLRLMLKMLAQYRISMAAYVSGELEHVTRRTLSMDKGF

Protein sequences, listed by entry. Tags and fused reporters are not part of them. Lines headed by an entry give the natural chain unless they say otherwise; changes in a name come on top.
UniProt P23368: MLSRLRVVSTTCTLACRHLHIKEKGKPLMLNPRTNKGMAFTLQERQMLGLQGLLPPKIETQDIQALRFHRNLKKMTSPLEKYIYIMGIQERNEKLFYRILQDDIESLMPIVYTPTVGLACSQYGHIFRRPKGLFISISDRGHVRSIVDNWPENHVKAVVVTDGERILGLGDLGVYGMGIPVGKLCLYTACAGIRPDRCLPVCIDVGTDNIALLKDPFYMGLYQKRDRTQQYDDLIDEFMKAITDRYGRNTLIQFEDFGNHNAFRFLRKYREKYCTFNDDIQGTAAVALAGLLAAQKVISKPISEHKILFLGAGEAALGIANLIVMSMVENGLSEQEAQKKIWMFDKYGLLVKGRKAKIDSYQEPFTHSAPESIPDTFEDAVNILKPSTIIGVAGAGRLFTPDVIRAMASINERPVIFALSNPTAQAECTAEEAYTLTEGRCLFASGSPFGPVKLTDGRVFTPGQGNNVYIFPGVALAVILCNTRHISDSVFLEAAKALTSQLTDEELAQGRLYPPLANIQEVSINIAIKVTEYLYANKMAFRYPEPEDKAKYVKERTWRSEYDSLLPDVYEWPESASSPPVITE
UniProt P14618: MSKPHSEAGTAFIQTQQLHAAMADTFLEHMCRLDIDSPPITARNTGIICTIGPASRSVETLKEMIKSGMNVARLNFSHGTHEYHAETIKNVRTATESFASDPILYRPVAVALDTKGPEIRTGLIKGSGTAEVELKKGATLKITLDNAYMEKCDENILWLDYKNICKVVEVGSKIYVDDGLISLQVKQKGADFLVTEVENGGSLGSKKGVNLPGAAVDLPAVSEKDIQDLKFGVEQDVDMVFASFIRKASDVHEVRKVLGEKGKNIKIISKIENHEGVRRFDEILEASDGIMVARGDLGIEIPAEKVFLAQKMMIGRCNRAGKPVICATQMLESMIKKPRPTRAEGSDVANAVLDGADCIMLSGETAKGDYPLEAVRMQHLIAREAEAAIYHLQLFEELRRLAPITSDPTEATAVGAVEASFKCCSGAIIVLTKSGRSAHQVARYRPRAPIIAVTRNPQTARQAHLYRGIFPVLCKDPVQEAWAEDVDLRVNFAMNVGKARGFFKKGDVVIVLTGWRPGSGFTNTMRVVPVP
UniProt P04406: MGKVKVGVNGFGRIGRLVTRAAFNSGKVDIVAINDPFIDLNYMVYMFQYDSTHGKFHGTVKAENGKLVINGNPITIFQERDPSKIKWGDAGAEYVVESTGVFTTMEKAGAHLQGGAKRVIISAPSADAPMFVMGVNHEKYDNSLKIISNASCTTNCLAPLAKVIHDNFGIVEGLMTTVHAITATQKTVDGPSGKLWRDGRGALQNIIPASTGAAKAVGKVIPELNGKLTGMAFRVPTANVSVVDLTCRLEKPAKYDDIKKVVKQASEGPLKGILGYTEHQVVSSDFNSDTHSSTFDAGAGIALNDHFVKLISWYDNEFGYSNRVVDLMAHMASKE
UniProt P60174: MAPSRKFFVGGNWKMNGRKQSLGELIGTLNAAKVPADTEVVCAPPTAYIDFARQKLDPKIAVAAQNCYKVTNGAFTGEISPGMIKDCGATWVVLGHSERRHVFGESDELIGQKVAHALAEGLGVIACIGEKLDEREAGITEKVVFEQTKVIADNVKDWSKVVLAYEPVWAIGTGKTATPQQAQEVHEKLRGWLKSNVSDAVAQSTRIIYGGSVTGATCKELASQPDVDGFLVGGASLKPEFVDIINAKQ
UniProt P00558: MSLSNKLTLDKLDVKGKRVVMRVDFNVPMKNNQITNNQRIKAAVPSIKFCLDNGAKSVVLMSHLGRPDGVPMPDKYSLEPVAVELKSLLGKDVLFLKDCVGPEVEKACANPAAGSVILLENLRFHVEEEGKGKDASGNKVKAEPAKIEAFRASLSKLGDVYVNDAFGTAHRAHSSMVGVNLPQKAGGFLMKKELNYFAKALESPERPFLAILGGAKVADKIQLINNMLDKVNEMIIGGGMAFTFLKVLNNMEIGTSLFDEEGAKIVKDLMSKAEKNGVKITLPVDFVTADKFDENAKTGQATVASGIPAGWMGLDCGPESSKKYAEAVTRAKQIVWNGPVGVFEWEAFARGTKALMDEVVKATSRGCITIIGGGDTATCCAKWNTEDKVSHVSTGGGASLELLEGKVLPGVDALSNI
UniProt Q99KE1: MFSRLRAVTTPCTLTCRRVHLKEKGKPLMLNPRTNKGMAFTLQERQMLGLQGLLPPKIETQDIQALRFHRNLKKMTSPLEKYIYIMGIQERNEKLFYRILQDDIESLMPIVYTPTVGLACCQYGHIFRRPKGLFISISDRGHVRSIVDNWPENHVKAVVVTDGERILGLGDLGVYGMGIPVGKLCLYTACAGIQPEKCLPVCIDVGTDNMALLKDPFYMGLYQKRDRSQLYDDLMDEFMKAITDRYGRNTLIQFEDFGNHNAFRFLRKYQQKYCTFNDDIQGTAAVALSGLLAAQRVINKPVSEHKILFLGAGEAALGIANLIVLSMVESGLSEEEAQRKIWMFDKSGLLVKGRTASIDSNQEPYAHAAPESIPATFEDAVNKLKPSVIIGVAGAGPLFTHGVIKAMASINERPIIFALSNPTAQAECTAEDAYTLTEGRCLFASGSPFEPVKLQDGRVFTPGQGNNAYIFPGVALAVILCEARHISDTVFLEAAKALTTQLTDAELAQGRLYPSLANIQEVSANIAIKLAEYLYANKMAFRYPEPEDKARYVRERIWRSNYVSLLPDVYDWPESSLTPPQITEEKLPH
UniProt P52480: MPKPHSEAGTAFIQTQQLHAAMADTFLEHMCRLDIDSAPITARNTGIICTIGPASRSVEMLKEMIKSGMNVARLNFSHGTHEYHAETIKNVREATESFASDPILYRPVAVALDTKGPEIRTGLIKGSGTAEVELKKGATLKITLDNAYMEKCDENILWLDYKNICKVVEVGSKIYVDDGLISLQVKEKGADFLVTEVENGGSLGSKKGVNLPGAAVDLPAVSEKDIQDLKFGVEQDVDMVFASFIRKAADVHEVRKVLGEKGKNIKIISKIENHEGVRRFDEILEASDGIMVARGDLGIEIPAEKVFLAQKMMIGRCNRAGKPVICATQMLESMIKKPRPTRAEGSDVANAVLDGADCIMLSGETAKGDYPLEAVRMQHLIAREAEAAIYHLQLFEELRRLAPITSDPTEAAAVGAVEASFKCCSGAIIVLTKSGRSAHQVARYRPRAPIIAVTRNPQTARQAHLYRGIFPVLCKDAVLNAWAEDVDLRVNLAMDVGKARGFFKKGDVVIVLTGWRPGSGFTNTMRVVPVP
UniProt P31749: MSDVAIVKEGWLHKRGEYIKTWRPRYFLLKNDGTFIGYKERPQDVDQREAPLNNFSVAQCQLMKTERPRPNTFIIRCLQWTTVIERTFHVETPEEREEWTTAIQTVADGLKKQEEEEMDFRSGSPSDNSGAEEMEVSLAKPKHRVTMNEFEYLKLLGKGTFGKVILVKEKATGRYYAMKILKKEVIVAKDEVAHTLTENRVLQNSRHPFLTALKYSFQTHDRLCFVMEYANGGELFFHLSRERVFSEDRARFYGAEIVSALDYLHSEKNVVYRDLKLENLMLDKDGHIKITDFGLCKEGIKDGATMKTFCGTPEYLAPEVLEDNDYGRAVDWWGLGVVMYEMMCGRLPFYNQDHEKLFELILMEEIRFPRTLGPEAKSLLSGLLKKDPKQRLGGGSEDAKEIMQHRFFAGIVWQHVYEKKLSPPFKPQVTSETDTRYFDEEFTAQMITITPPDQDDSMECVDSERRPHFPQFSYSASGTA

Flag-tagged PKM2 [6] = target: Flag-tagged PKM2 (UniProt P14618); test: co-IP; HEK293T cells transfected for 24 h, total lysates in IP lysis buffer (50 mM Tris-HCl pH 7.4, 150 mM NaCl, 1% TritonX-100, 5 mM EDTA, 1% sodium deoxycholate), anti-Flag immunoprecipitation, western blot
Flag-tagged GAPDH [7] = target: Flag-tagged GAPDH (UniProt P04406); test: as above
Flag-tagged PFKL [8] = target: T1, Flag-tagged PFKL; test: as above
Flag-tagged TPI = Flag-tagged TPI (UniProt P60174); test: as above
Flag-tagged PGK1 = Flag-tagged PGK1 (UniProt P00558); test: as above
[9] = target: ME2fl, endogenous in mouse prostate tissue (mouse (endogenous in prostate tissue)) (UniProt Q99KE1); test: co-IP; endogenous proteins, lysates of prostate tissues of Pb-Cre- Pten L/L and Pb-Cre+ Pten L/L mice, anti-ME2 antibody, western blot
5'GST-ME2fl (human) = test: pull-down; GST fusion protein from E. coli on glutathione agarose beads, Flag-tagged protein purified from HEK293T; binding buffer 50 mM Tris-HCl pH 8.0, 150 mM NaCl, 1% Triton X-100, 1 mM PMSF, 12 h at 4 °C; anti-Flag blot; both purified

Molecule: ME2fl (full-length cytoplasmic malic enzyme 2), transfected (from UniProt P23368)
binding (Flag-tagged PKM2 [3]): binds | binding (Flag-tagged GAPDH [4]): binds | binding (Flag-tagged PFKL [5]): binds | binding (Flag-tagged PKM2 [6]): binds | binding (Flag-tagged GAPDH [7]): binds | binding (Flag-tagged PFKL [8]): binds

Molecule: ME2flS9D-3'HA (from UniProt P23368) (enzyme)
binding (Flag-tagged PKM2 [6]): binds | binding (Flag-tagged TPI): no binding | binding (Flag-tagged GAPDH [7]): binds | binding (Flag-tagged PGK1): no binding | binding (Flag-tagged PFKL [8]): binds

Molecule: PKM2, endogenous in mouse prostate tissue (from UniProt P52480 1-531) (enzyme)
binding [9]: binds

Results, then the molecule that gave them:

binding [1]: binds | binding [2]: binds
Molecule: AKT1, transfected (from UniProt P31749 1-480) (enzyme)

binding (5'GST-ME2fl (human)): binds
B1: Flag-tagged PFKL (enzyme, UniProt P17858 1-780)
chain: T1 sequence

— paper PMC10805786
